Data as given in PMC5461540, “MOB1 Mediated Phospho-recognition in the Core Mammalian Hippo Pathway” (Molecular & Cellular Proteomics : MCP, 2017).

Target: T1, GST-MOB4 wild-type (human) (UniProt Q9Y3A3)
T1 sequence: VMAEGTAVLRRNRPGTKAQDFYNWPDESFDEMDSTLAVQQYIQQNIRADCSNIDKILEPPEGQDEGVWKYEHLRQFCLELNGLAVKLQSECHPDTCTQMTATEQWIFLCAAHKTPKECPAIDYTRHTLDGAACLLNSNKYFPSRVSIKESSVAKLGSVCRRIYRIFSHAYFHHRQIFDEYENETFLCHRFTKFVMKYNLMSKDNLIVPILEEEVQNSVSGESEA
Experiment: affinity purification with mass spectrometry; GST-MOB4 WT or RRR→AAA on glutathione beads, 2 mg lysate of okadaic acid-treated HeLa cells, 2 h at 4 °C; SAINTexpress scoring against glutathione resin alone; only the target purified

Substance: MST1 (endogenous, HeLa) (from UniProt Q13043-1 1-487)
- binding: binds

Results are given in words; binding and its absence hold for the method and conditions named. In cells and extracts the contact can be indirect. A yes stands for co-enrichment or nearness to the bait. Other partners may have been found. Sequences can lack the tags named with a protein.
